PubChem BioAssay AID1508597, Cure First – 2020

Test: 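Survival screen with siRNA in ovarian cancer cells derived from patients, with or without rucaparib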 (primary screen)
Cell system: human ovarian carcinoma lines grown from tumours: OCI-P5x (papillary serous) and OCI-C5x (clear cell)
Reagents: siRNA pool against human genes, 1.25 pmol siRNA per well
Timing: 72 h or 96 h, depending on the cell culture
Treatment: rucaparib 20 µM (about IC30) or vehicle, present until read-out
Read-out: 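Luminescent ATP-based viability assay read 72 or 96 h after transfection, depending on culture, given as normalised percent viability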
Scale: viability, normalised: higher = more viable cells remaining
Rule for the call: 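a well counts as a hit if its normalised viability is under 80 percent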
Meaning of the calls: active = viability under 80%; inactive = viability 80% or more
Here is an unselected part of about 2,100 reagents tested. 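Calls flag viability under 80% in either arm, not effects specific to rucaparib; the reference for percent is not stated.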 Unmarked entries are inactive. Not given: the 100% reference.

gene | rucaparib or vehicle | cell line | technical replicate | viability, normalised (%)
PDE3A (GeneID 5139) | Rucaparib | OCI-C5x (clear cell) | 1 | 69.1 (active)
PDE3A (GeneID 5139) | Rucaparib | OCI-C5x (clear cell) | 2 | 41.8 (active)
PDE3A (GeneID 5139) | Rucaparib | OCI-C5x (clear cell) | 3 | 62.1 (active)
PDE3A (GeneID 5139) | Rucaparib | OCI-P5x (serous) | 1 | 59.2 (active)
PDE3A (GeneID 5139) | Rucaparib | OCI-P5x (serous) | 2 | 50.4 (active)
PDE3A (GeneID 5139) | Rucaparib | OCI-P5x (serous) | 3 | 51.6 (active)
PDE3A (GeneID 5139) | Vehicle | OCI-C5x (clear cell) | 1 | 57.1 (active)
PDE3A (GeneID 5139) | Vehicle | OCI-C5x (clear cell) | 2 | 64.6 (active)
PDE3A (GeneID 5139) | Vehicle | OCI-C5x (clear cell) | 3 | 57.7 (active)
PDE3A (GeneID 5139) | Vehicle | OCI-P5x (serous) | 1 | 71.1 (active)
PDE3A (GeneID 5139) | Vehicle | OCI-P5x (serous) | 2 | 71.7 (active)
PDE3A (GeneID 5139) | Vehicle | OCI-P5x (serous) | 3 | 74.7 (active)
RIPK2 (GeneID 8767) | Rucaparib | OCI-C5x (clear cell) | 1 | 50.2 (active)
RIPK2 (GeneID 8767) | Rucaparib | OCI-C5x (clear cell) | 2 | 38.9 (active)
RIPK2 (GeneID 8767) | Rucaparib | OCI-C5x (clear cell) | 3 | 40 (active)
RIPK2 (GeneID 8767) | Rucaparib | OCI-P5x (serous) | 1 | 79.5 (active)
RIPK2 (GeneID 8767) | Rucaparib | OCI-P5x (serous) | 2 | 94.3
RIPK2 (GeneID 8767) | Rucaparib | OCI-P5x (serous) | 3 | 98.9
RIPK2 (GeneID 8767) | Vehicle | OCI-C5x (clear cell) | 1 | 39.7 (active)
RIPK2 (GeneID 8767) | Vehicle | OCI-C5x (clear cell) | 2 | 57.2 (active)
RIPK2 (GeneID 8767) | Vehicle | OCI-C5x (clear cell) | 3 | 57.5 (active)
RIPK2 (GeneID 8767) | Vehicle | OCI-P5x (serous) | 1 | 96.9
RIPK2 (GeneID 8767) | Vehicle | OCI-P5x (serous) | 2 | 92
RIPK2 (GeneID 8767) | Vehicle | OCI-P5x (serous) | 3 | 73.7 (active)
MYSM1 (GeneID 114803) | Rucaparib | OCI-C5x (clear cell) | 1 | 44.5 (active)
MYSM1 (GeneID 114803) | Rucaparib | OCI-C5x (clear cell) | 2 | 50.5 (active)
MYSM1 (GeneID 114803) | Rucaparib | OCI-C5x (clear cell) | 3 | 45.9 (active)
MYSM1 (GeneID 114803) | Rucaparib | OCI-P5x (serous) | 1 | 50.5 (active)
MYSM1 (GeneID 114803) | Rucaparib | OCI-P5x (serous) | 2 | 62.9 (active)
MYSM1 (GeneID 114803) | Rucaparib | OCI-P5x (serous) | 3 | 69.7 (active)
MYSM1 (GeneID 114803) | Vehicle | OCI-C5x (clear cell) | 1 | 36.8 (active)
MYSM1 (GeneID 114803) | Vehicle | OCI-C5x (clear cell) | 2 | 32.6 (active)
MYSM1 (GeneID 114803) | Vehicle | OCI-C5x (clear cell) | 3 | 40.9 (active)
MYSM1 (GeneID 114803) | Vehicle | OCI-P5x (serous) | 1 | 68.5 (active)
MYSM1 (GeneID 114803) | Vehicle | OCI-P5x (serous) | 2 | 61.5 (active)
MYSM1 (GeneID 114803) | Vehicle | OCI-P5x (serous) | 3 | 87.9
TRIP13 (GeneID 9319) | Rucaparib | OCI-C5x (clear cell) | 1 | 51.3 (active)
TRIP13 (GeneID 9319) | Rucaparib | OCI-C5x (clear cell) | 2 | 44.8 (active)
TRIP13 (GeneID 9319) | Rucaparib | OCI-C5x (clear cell) | 3 | 61.1 (active)
TRIP13 (GeneID 9319) | Rucaparib | OCI-P5x (serous) | 1 | 53.4 (active)
TRIP13 (GeneID 9319) | Rucaparib | OCI-P5x (serous) | 2 | 45.7 (active)
TRIP13 (GeneID 9319) | Rucaparib | OCI-P5x (serous) | 3 | 62.6 (active)
TRIP13 (GeneID 9319) | Vehicle | OCI-C5x (clear cell) | 1 | 55 (active)
TRIP13 (GeneID 9319) | Vehicle | OCI-C5x (clear cell) | 2 | 43.6 (active)
TRIP13 (GeneID 9319) | Vehicle | OCI-C5x (clear cell) | 3 | 54.7 (active)
TRIP13 (GeneID 9319) | Vehicle | OCI-P5x (serous) | 1 | 55.1 (active)
TRIP13 (GeneID 9319) | Vehicle | OCI-P5x (serous) | 2 | 52.3 (active)
TRIP13 (GeneID 9319) | Vehicle | OCI-P5x (serous) | 3 | 55.3 (active)
ARL8A (GeneID 127829) | Rucaparib | OCI-C5x (clear cell) | 1 | 57.3 (active)
ARL8A (GeneID 127829) | Rucaparib | OCI-C5x (clear cell) | 2 | 72.9 (active)
ARL8A (GeneID 127829) | Rucaparib | OCI-C5x (clear cell) | 3 | 64.9 (active)
ARL8A (GeneID 127829) | Rucaparib | OCI-P5x (serous) | 1 | 70.2 (active)
ARL8A (GeneID 127829) | Rucaparib | OCI-P5x (serous) | 2 | 70.3 (active)
ARL8A (GeneID 127829) | Rucaparib | OCI-P5x (serous) | 3 | 84.5
ARL8A (GeneID 127829) | Vehicle | OCI-C5x (clear cell) | 1 | 41.1 (active)
ARL8A (GeneID 127829) | Vehicle | OCI-C5x (clear cell) | 2 | 51.6 (active)
ARL8A (GeneID 127829) | Vehicle | OCI-C5x (clear cell) | 3 | 31.9 (active)
ARL8A (GeneID 127829) | Vehicle | OCI-P5x (serous) | 1 | 34.6 (active)
ARL8A (GeneID 127829) | Vehicle | OCI-P5x (serous) | 2 | 52.3 (active)
ARL8A (GeneID 127829) | Vehicle | OCI-P5x (serous) | 3 | 31.5 (active)

3 of these entries, reformatted:
gene,rucaparib or vehicle,cell line,technical replicate,"viability, normalised (%)"
PDE3A (GeneID 5139),Vehicle,OCI-P5x (serous),1,71.1 (active)
PDE3A (GeneID 5139),Vehicle,OCI-P5x (serous),2,71.7 (active)
PDE3A (GeneID 5139),Vehicle,OCI-P5x (serous),3,74.7 (active)
